Patent US20120010092A1

Chains of the proteins cited; added tags and fusions are not shown. Lines headed by an entry give the natural chain unless they say otherwise; changes in a name come on top.
UniProt P49789: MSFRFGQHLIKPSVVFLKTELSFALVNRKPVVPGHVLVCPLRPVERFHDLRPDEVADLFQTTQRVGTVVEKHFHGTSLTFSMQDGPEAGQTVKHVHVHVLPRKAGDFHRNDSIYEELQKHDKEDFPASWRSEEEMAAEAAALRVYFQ
UniProt P22570: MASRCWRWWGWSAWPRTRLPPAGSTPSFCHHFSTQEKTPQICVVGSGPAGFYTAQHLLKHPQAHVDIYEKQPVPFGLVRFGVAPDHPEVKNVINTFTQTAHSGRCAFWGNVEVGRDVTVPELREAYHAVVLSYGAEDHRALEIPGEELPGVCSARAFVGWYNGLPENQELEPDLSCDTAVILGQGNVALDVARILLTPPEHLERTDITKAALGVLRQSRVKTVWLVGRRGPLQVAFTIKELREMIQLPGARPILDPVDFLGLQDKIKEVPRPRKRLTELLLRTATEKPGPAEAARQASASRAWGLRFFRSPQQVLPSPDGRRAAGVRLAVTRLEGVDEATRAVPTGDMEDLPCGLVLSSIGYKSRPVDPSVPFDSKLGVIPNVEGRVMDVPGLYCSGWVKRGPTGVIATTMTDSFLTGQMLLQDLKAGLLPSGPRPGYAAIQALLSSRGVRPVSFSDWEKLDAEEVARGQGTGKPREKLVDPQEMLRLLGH

Target: Fhit (fragile histidine triad protein), wild type, untagged (human) (UniProt P49789)
Assay: anti-V5 immunoprecipitation from A549 cells co-transfected with FDXR-V5 and FHIT plasmids, immunoblot (FIG. 2E)

binding: binds
Substance: V5-tagged ferredoxin reductase (FDXR-V5) (from UniProt P22570) (enzyme)

Results are given in words; binding and its absence hold for the method and conditions named. Binding calls can cover weak binding; strength is not graded here.
